The target of the assay is Interferon-alpha receptor-1 (IFNAR1) (human (endogenous in Huh-7.5)) (UniProt P17181). Put plainly: co-IP; Huh-7.5 cells serum starved (12 hours in the methods, 4 hours in the results, six hours in the legend), lysed in RIPA buffer; 1 mg extract immunoprecipitated with anti-IFNAR1 or anti-IFNLR1 antibody overnight at 4°C, protein A/G plus-agarose, washed three times with RIPA buffer; blots for LAMP2A and HSC70.

By UniProt entry, the sequences of proteins in these tests, tags left out. Residues count along the entry.
UniProt P17181, residues 28-557: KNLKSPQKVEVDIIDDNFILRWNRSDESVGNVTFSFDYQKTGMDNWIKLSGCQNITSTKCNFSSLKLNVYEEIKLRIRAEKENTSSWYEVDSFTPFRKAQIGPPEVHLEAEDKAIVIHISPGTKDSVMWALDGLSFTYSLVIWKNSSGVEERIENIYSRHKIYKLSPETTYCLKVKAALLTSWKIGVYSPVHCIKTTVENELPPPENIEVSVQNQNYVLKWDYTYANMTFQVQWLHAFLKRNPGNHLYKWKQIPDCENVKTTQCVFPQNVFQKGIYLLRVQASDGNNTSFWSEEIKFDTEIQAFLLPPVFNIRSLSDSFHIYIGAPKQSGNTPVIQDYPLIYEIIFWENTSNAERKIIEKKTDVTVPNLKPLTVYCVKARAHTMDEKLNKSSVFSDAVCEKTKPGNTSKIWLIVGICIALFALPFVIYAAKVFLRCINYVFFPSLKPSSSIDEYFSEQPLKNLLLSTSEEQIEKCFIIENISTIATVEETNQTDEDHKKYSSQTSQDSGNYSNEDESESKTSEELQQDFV
UniProt P11142: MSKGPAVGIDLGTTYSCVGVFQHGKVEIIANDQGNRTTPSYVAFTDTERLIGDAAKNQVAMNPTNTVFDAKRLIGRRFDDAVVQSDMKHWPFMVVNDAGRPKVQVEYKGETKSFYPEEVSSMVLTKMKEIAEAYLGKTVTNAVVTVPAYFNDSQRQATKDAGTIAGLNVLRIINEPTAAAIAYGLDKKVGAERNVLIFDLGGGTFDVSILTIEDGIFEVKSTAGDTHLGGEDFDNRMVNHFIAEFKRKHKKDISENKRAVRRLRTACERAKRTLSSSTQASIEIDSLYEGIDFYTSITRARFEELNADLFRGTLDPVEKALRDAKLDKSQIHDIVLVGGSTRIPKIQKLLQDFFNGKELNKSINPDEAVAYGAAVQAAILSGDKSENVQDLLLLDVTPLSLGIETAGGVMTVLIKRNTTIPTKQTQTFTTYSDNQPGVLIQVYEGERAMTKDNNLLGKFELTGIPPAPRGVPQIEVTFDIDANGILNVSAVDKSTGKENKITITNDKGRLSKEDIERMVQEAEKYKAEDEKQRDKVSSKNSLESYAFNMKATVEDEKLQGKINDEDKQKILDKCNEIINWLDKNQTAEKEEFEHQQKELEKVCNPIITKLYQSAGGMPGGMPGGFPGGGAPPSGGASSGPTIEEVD

These are yes or no findings as the source states them, for the method shown. In cells and extracts the contact can be indirect. Some results given as binding are weak or reduced against the parent protein; the word gives no strength.

On to “heat-shock cognate protein HSC70 (from UniProt P11142 1-646)”, for which the binding result is recorded as “binds”.

The record behind these values is article PMC4427131.
